Assay results from PubChem BioAssay AID2685 (National Center for Advancing Translational Sciences (NCATS), 2010).
The other results are listed elsewhere or left out. Further columns of the screen follow, without active or inactive calls. Compounds called inactive in the main read-out are mostly missing here. The note in brackets gives the kind of curve behind each potency; many fits are weak.

Experiment: qHTS Assay for Lipid Storage Modulators in Drosophila S3 Cells;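 for cell number change: cells counted by Cell Tracker Red CMTPX staining in the red channel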
Settings: BODIPY lipid droplet fluorescence, 18-24 h; for cell number change: measured here: cell count max response, cells fed with added oleic acid
In short: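 Drosophila S3 cells loaded with oleic acid (400 uM, as added) and compounds at several concentrations; lipid droplets imaged by 488-nm laser-scanning cytometry, 500–530 nm intensity and object ratio to cell channel. Percent activity normalized to 20 uM Triacsin C.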

[1] = measured here: cell number channel AC50, cells fed with added oleic acid
[2] = measured here: lipid fluorescence (Fed channel) AC50, cells fed with added oleic acid

SMILES	cell number change	AC50 [1]	AC50 [2]
CC(C)(C)c1ccc(Cn2nnc3c(=O)[nH]c(C4CCN(C(=O)Cc5cccs5)CC4)nc32)cc1	-53.7%	32.6 µM [falling, single point]	32.6 µM [falling, single point]
CC(C)OC(=O)CCC/C=C\C[C@@H]1[C@@H](CC[C@@H](O)CCc2ccccc2)[C@H](O)C[C@@H]1O	-28.3%	–	18.4 µM [falling, single point]
O=S(=O)(NC1CC1)c1ccc(F)c(F)c1	–	–	25.9 µM [falling, single point]
O=C(CSc1nnc(Nc2ccccc2)s1)Nc1ccc(S(=O)(=O)N2CCOCC2)cc1	23.4%	–	29.1 µM [rising, single point]
Cn1ccsc1=NC(=O)c1ccc(S(C)(=O)=O)cc1	18.7%	–	29.1 µM [rising, single point]
Cc1ccc2cc(CN(Cc3ccccc3)Cc3nnnn3C3CCCC3)c(=O)[nH]c2c1	21.8%	6.51 µM [rising, single point]	0.116 µM [falling, full curve, poor fit]
CN1CCN(S(=O)(=O)c2cccc(C(=O)Nc3sccc3C(N)=O)c2)CC1	-36%	2.31 µM [falling, full curve, poor fit]	0.231 µM [falling, full curve]
N/C(=N\OC(=O)Nc1cccc(C(F)(F)F)c1)c1ccno1	-3.74%	3.66 µM [rising, single point]	–
CN(Cc1ccccc1)C(=O)c1nc[nH]c1C(=O)N1CCc2ccccc2C1	21.2%	0.103 µM [rising, full curve, poor fit]	0.103 µM [rising, single point]
Cc1ccc(C)c2nc3sc(C(=O)O)cc3cc12	14.8%	–	0.411 µM [rising, partial curve, poor fit]
CCN(CC(=O)NCc1ccc(Cl)cc1)C(=O)CN1C(=O)NC(C)(c2ccccc2)C1=O (stereo not given)	11%	–	0.103 µM [falling, full curve, poor fit]
COc1ccccc1CNC(=O)c1ccc(CS(=O)Cc2cccc(Cl)c2)o1 (stereo not given)	32.5%	10.3 µM [rising, partial curve, poor fit]	0.326 µM [rising, full curve, poor fit]
O=C(COC(=O)/C=C/c1ccc(Cl)cc1)Nc1ccccc1-c1ccccc1	41.3%	10.3 µM [rising, partial curve]	16.4 µM [rising, single point]
COc1cccc(Nc2nnc(SCc3nc4ccccc4s3)s2)c1	-14.3%	7.31 µM [falling, single point]	3.66 µM [rising, full curve]
O=C(c1ccc(OC2CCN(Cc3ccc(F)cc3)CC2)cc1)N1CCCC1	14.4%	–	0.116 µM [rising, partial curve, poor fit]
O=C(Cc1ccc(Cl)cc1)NNc1c(F)c(F)cc(F)c1F	7.21%	–	18.4 µM [rising, single point]
CCN(CC(=O)NC1CCS(=O)(=O)C1)S(=O)(=O)c1ccc2ccccc2c1 (stereo not given)	12.6%	–	13 µM [rising, single point]
CC(=O)Nc1cccc(-c2csc(Nc3ccc(Cl)cn3)n2)c1	-27.4%	0.517 µM [falling, single point]	–

SMILES	cell number change	AC50 [1]	AC50 [2]
CC1(C)Cc2c(sc(NC(=O)COc3ccccc3)c2C#N)C(C)(C)N1	-12.2%	–	–
COc1ccc(N(CC(=O)NCc2ccccc2C)S(=O)(=O)c2ccccc2[N+](=O)[O-])c(OC)c1	-37.9%	20.6 µM [falling, single point]	13 µM [falling, single point]
O=C(Cc1cccs1)N1CCN=C1SCc1ccc(Br)cc1	10.5%	–	–
COCCCn1c(C(=O)NC2CCCCC2C)cc2c(=O)n3cccc(C)c3nc21 (stereo not given)	–	–	18.4 µM [falling, partial curve]
Cc1cc(C)nc(SCC(=O)NNC(=O)c2cccs2)n1	18.8%	–	–
Cc1cc(C)c2cc(CN(CCO)C(=O)Nc3ccc(Cl)cc3)c(=O)[nH]c2c1	-36.4%	23.1 µM [falling, single point]	0.13 µM [rising, full curve, poor fit]
Cc1[nH]n(-c2cccc(Cl)c2)c(=O)c1-c1ccc(Cl)cc1	-14%	6.51 µM [falling, single point]	2.06 µM [falling, partial curve]
CCN(CC(=O)Nc1c(F)cccc1F)C(=O)CNC(=O)C1CCCCC1	-26.5%	–	–
Cc1ccc(NC(=O)c2cc3ccccc3o2)nc1	35.2%	2.31 µM [rising, full curve]	–
O=C(Oc1ccc(/C=N/NC(=O)c2ccco2)cc1)c1ccccc1	6.84%	–	14.6 µM [falling, partial curve, poor fit]
CCC(=O)N(Cc1cc2cc(C)c(C)cc2[nH]c1=O)C1CCCCC1	–	0.651 µM [rising, single point]	0.116 µM [rising, single point]
c1cncc(-c2nc(-c3ccc4c(c3)OCCO4)cs2)c1	-18.9%	–	32.6 µM [falling, single point]
CC(=O)N1CCN(c2ccc(NC(=O)c3ccc(OCc4ccccc4)cc3)cc2)CC1	26.1%	5.17 µM [falling, single point]	5.17 µM [falling, single point]
Cc1nccn1CCC1CCCCN1C(=O)CCc1nnc(-c2ccsc2)o1 (stereo not given)	-0.12%	–	–
NS(=O)(=O)c1ccc(CCNCc2cccs2)cc1	-52.7%	20.6 µM [falling, single point]	25.9 µM [falling, single point]
O=C(CC(=O)NCCc1ccccc1)NCCc1ccccc1	8.55%	–	0.58 µM [rising, single point]
C=C(C)C(=O)Nc1cccc(C2=NOC3(C2)C[C@H](C(N)=O)N(C(=O)CC#N)C3)c1 (stereo not given in full)	3.18%	–	2.06 µM [falling, partial curve]

Taken from above:
For cell number change, CC(C)OC(=O)CCC/C=C\C[C@@H]1[C@@H](CC[C@@H](O)CCc2ccccc2)[C@H](O)C[C@@H]1O is listed with -28.3%
For AC50 [2], CCN(CC(=O)NC1CCS(=O)(=O)C1)S(=O)(=O)c1ccc2ccccc2c1 (stereo not given) is listed with 13 µM [rising, single point]
